Among the data in the supplement of paper PMC12819154, “High-throughput peptide-centric local stability assay extends protein–ligand identification to membrane proteins, tissues and bacteria” (Nature Structural & Molecular Biology, 2025) are log2 fold change values, retold here.

Sequences of proteins named here, by UniProt entry; tags and fusion partners are left off. A change or cut given only in a name is not applied to a line headed by its entry.
UniProt Q9D3G5: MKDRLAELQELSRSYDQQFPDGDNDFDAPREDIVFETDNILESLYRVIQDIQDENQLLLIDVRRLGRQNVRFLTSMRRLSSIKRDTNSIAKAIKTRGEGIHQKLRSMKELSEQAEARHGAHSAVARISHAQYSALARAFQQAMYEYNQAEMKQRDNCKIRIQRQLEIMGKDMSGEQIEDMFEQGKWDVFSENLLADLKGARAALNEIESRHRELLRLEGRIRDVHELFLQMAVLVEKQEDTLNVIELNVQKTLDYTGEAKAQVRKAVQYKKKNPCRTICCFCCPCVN
UniProt Q9D1H7: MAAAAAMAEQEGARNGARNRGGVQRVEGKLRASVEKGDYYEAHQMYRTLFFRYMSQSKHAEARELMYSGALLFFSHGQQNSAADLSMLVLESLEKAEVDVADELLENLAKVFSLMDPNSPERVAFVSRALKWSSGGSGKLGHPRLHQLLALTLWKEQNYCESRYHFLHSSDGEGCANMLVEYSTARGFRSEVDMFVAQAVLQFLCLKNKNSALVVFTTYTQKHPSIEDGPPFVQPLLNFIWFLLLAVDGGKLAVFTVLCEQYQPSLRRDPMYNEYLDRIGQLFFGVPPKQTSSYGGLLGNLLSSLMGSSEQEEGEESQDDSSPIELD
UniProt Q9DA03: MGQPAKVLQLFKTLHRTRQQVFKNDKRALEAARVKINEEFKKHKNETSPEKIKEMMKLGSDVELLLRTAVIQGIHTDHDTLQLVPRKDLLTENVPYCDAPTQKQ
UniProt Q9D735: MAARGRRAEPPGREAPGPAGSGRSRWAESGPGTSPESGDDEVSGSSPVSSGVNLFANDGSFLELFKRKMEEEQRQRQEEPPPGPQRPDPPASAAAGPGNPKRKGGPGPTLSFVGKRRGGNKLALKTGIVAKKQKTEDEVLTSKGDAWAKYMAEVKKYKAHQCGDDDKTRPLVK
UniProt Q9D8C4: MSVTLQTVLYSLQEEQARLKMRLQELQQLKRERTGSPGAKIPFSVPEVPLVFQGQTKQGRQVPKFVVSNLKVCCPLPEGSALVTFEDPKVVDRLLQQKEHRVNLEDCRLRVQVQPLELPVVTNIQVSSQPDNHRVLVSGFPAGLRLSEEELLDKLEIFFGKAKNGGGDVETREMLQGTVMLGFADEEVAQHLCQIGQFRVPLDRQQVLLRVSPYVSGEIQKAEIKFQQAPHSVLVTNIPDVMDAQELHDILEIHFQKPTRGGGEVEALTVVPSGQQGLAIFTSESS
UniProt Q9D6K8: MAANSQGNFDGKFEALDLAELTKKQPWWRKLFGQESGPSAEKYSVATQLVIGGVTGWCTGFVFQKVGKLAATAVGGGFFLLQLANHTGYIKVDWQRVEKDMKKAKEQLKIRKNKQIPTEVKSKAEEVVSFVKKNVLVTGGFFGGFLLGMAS
UniProt Q9D1L0: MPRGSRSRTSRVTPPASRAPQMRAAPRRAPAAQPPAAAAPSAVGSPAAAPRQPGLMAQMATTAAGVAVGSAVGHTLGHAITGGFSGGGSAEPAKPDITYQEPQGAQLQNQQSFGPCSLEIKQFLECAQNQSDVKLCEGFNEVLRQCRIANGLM
UniProt Q9D964: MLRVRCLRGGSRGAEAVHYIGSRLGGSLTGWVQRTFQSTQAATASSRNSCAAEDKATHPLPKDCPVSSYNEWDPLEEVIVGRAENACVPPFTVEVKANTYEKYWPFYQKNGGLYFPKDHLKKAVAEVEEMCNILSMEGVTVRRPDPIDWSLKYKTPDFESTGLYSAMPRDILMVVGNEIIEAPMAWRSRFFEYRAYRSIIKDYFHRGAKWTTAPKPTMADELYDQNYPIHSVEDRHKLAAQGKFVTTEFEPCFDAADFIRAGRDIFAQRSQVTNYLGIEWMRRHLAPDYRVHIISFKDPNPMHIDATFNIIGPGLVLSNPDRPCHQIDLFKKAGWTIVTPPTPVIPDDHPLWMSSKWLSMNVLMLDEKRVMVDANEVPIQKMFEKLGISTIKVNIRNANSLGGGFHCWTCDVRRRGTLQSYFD
UniProt Q9D240: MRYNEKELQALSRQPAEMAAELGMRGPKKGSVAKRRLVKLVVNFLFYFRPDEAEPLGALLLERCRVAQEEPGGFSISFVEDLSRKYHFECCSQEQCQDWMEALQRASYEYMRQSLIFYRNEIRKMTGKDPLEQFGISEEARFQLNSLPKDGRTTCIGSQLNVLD
UniProt Q9D898, whole entry: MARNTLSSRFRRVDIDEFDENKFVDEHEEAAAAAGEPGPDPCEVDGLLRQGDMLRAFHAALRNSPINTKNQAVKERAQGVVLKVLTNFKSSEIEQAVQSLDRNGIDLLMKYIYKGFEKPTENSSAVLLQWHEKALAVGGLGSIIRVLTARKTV
UniProt Q9D799: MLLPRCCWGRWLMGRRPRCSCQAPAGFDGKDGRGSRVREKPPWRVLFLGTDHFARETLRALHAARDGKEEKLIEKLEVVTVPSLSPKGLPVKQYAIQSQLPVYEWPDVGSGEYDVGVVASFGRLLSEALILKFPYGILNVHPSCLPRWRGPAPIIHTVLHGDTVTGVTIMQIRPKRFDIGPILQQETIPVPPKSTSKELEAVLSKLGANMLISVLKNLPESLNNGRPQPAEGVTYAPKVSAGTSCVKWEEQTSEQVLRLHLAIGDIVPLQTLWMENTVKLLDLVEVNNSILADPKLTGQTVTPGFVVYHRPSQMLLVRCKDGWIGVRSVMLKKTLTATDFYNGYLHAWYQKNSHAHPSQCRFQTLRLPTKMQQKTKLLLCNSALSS
UniProt Q9D6V8: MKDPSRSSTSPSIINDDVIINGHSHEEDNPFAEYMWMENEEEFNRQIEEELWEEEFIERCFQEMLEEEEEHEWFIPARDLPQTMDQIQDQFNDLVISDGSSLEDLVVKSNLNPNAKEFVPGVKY
UniProt Q9D8T4: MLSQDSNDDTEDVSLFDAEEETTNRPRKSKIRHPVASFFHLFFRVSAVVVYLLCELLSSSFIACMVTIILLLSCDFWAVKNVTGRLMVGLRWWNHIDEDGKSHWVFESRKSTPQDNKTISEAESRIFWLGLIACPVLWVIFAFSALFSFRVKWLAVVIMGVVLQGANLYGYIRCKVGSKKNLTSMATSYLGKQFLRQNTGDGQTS
UniProt Q9D6T1: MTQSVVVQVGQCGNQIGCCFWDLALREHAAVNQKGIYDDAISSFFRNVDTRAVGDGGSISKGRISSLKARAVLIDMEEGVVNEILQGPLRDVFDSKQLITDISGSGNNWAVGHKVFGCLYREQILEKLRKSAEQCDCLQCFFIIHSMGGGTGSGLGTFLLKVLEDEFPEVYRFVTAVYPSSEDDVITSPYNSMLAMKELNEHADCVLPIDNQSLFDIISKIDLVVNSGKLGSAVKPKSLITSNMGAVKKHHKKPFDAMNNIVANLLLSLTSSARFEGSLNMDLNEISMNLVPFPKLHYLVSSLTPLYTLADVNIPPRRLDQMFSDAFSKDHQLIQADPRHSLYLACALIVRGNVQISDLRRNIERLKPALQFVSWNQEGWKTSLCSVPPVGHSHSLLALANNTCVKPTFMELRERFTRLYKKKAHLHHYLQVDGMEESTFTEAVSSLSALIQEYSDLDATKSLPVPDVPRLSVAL
UniProt Q9D8W7: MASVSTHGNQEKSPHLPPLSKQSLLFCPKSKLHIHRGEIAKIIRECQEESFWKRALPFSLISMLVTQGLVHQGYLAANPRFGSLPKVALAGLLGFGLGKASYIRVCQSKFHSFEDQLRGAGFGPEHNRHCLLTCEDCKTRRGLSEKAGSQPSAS
UniProt Q9D8S4: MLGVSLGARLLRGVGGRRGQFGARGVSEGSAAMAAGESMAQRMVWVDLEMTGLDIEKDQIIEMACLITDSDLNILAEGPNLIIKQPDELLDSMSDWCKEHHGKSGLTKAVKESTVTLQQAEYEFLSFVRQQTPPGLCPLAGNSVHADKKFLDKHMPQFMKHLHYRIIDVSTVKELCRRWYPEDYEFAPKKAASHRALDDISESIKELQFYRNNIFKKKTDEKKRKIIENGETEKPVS
UniProt Q9D1I5: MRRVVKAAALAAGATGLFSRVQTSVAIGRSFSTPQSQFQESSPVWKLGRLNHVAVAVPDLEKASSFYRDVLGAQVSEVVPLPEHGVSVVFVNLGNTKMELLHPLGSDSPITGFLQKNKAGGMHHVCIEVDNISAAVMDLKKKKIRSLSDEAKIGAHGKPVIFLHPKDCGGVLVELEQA
UniProt Q9D819: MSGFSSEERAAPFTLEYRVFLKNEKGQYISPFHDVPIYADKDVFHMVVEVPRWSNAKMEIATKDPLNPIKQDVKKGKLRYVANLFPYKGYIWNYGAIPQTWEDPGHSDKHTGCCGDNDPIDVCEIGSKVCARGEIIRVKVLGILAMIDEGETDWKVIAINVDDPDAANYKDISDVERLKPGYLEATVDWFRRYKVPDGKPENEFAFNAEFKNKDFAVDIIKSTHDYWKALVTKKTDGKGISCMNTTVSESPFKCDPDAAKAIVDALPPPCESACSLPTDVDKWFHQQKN
UniProt Q9D7B6: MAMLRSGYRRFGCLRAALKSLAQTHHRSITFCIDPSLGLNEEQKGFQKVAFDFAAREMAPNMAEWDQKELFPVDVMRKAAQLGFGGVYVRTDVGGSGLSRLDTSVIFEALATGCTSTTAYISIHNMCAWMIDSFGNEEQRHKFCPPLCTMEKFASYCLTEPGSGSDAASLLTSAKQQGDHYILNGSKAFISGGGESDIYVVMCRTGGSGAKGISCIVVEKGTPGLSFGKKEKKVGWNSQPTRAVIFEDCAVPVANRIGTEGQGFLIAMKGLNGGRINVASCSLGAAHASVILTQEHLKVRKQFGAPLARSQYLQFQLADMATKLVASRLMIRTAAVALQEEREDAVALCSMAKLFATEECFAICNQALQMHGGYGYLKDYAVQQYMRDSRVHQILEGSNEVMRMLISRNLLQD
UniProt Q9D2N9: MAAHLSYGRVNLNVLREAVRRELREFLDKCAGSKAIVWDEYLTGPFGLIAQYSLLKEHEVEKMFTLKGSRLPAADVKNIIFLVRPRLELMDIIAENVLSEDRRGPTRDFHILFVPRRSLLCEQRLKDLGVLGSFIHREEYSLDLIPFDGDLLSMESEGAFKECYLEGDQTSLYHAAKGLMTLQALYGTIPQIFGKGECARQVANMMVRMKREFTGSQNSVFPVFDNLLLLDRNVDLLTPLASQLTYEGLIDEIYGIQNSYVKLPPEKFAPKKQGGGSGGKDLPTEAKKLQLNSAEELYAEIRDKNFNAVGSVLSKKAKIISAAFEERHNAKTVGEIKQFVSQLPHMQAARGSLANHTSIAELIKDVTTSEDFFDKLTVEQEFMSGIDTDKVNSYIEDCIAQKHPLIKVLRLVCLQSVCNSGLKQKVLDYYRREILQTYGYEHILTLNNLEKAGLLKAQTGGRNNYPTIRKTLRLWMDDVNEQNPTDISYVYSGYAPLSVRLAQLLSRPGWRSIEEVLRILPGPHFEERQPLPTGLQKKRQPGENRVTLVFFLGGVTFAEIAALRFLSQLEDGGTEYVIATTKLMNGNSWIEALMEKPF
UniProt Q9D8N2, whole entry: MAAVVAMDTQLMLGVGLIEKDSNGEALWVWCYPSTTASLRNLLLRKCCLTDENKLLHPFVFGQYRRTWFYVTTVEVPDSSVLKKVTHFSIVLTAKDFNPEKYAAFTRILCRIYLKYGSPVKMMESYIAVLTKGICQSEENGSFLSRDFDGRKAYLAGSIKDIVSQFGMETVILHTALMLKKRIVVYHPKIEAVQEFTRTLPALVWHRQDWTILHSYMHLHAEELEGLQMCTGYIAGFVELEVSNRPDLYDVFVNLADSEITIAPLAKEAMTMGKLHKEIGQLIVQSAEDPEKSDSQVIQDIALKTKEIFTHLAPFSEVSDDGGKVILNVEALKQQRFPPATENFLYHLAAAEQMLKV
UniProt Q9D1A0: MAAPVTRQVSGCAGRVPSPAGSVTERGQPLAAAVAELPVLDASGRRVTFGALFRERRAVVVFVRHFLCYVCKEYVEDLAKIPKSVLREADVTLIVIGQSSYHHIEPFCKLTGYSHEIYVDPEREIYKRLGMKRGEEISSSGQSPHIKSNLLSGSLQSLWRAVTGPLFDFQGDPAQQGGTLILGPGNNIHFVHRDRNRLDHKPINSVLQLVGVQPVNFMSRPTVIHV
UniProt Q9D9H8: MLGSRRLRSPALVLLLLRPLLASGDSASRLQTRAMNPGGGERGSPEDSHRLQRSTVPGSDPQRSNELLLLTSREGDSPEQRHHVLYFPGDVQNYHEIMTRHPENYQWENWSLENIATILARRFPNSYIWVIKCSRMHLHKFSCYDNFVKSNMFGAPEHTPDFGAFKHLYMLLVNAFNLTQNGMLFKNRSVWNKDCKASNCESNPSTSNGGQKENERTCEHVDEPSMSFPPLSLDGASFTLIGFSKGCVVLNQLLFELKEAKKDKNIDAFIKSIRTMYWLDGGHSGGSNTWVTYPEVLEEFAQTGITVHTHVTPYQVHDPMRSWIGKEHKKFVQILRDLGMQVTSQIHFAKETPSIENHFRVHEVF
UniProt Q9D711: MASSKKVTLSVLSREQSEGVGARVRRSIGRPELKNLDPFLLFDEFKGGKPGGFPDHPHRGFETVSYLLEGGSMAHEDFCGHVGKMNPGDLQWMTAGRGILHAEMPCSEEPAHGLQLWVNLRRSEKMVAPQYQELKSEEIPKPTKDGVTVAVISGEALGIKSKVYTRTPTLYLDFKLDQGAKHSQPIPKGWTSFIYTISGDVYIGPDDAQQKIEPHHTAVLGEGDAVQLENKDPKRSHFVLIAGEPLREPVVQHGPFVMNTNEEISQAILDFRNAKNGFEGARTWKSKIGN

Some of the results follow. Small differences around the control level are noise.

Compound in the assay: CN[C@@H]1C[C@H]2O[C@@](C)([C@@H]1OC)n1c3ccccc3c3c4c(c5c6ccccc6n2c5c31)C(=O)NC4 [staurosporine]
The experiment in a line: log2 fold change of tryptic peptide abundance, ligand vs vehicle (limited proteolysis) (log2 ratio); higher = more trypsin-susceptible (destabilized). As to conditions: ligand concentration: 20 uM; sample: mouse liver crude lysate; replicate design: treated separately.
“UniProt Q9D3G5 (peptide sequence: ISHAQYSALAR, peptide start residue: 127)”: the log2 fold change was -0.362. “UniProt Q9D8E6 (peptide sequence: MFAPTKTWRR, peptide start residue: 101)”: the log2 fold change was 0.439. As for “UniProt Q9D1F5 (peptide sequence: AYGEGSGADCR, peptide start residue: 43)”, the figure is 0.3; as for “UniProt Q9D1G2 (peptide sequence: LSGPLKEEYAR, peptide start residue: 43)”, 0.275; as for “UniProt Q9D1H7 (peptide sequence: ASVEKGDYYEAHQMYR, peptide start residue: 32)”, 0.331. Turning to “UniProt Q9DA03 (peptide sequence: TAVIQGIHTDHDTLQLVPR, peptide start residue: 68)”, the log2 fold change was -0.372. Next, “UniProt Q9D735 (peptide sequence: KGGPGPTLSFVGK, peptide start residue: 103)”: 0.301; “UniProt Q9D8C4 (peptide sequence: NGGGDVETR, peptide start residue: 164)”: -0.219; “UniProt Q9D6K8 (peptide sequence: SKAEEVVSFVKK, peptide start residue: 122)”: -0.301. As for “UniProt Q9D1L0 (peptide sequence: LCEGFNEVLR, peptide start residue: 135)”, the log2 fold change amounted to 0.261. For the target “UniProt Q9D964 (peptide sequence: NSCAAEDK, peptide start residue: 48)”, the log2 fold change was -0.161.

As for “UniProt Q9D240 (peptide sequence: FQLNSLPK, peptide start residue: 142)”, the log2 fold change is -0.0143. Next, “UniProt Q9D898 (peptide sequence: ALAVGGLGSIIR, peptide start residue: 134)”: -0.128. Next, “UniProt Q9D3D0 (peptide sequence: AREELQEKPEWR, peptide start residue: 44)”: -0.0533. As for “UniProt Q9D799 (peptide sequence: LTGQTVTPGFVVYHRPSQMLLVR, peptide start residue: 296)”, the figure is -0.369; as for “UniProt Q9D6V8 (peptide sequence: EFVPGVKY, peptide start residue: 129)”, -0.0202. Regarding “UniProt Q9D1Q1 (peptide sequence: GFNPEVEK, peptide start residue: 79)”, the log2 fold change is -0.266.

Take “UniProt Q9D8T4 (peptide sequence: NLTSMATSYLGK, peptide start residue: 181)”: the log2 fold change is 0.232. Next, “UniProt Q9D6T1 (peptide sequence: SLITSNMGAVK, peptide start residue: 238)”: -0.0878.

“UniProt Q9D8W7 (peptide sequence: QSLLFCPK, peptide start residue: 22)”: the log2 fold change turned out to be 0.184. “UniProt Q9D8S4 (peptide sequence: ALDDISESIK, peptide start residue: 196)”: the log2 fold change is -0.192.

Consider “UniProt Q9D752 (peptide sequence: TMTSDILK, peptide start residue: 191)”, for which the log2 fold change is 0.0631. Next, “UniProt Q9D1D4 (peptide sequence: IPDQLVILDMKHGVEAK, peptide start residue: 117)”: -0.356; “UniProt Q9D1I5 (peptide sequence: IRSLSDEAK, peptide start residue: 144)”: 0.401; “UniProt Q9D819 (peptide sequence: VFLKNEK, peptide start residue: 19)”: -0.183.

For “UniProt Q9D7B6 (peptide sequence: FCPPLCTMEK, peptide start residue: 143)”, the log2 fold change stood at 0.131. Next, “UniProt Q9D2N9 (peptide sequence: KQGGGSGGKDLPTEAK, peptide start residue: 272)”: -0.405. As for “UniProt Q9D8C3 (peptide sequence: GKPLVVVVNEK, peptide start residue: 93)”, the figure is 0.145; as for “UniProt Q9D8N2 (peptide sequence: KVTHFSIVLTAK, peptide start residue: 84)”, 0.409; as for “UniProt Q9D1A0 (peptide sequence: EYVEDLAK, peptide start residue: 73)”, 0.253. Next, “UniProt Q9D3E6 (peptide sequence: FLTEQMMERR, peptide start residue: 1029)”: 0.336; “UniProt Q9D219 (peptide sequence: TDVGAPFGPQGHR, peptide start residue: 424)”: 0.212.

Consider “UniProt Q9D9H8 (peptide sequence: SNELLLLTSR, peptide start residue: 64)”, for which the log2 fold change was -0.278.

Regarding “UniProt Q9D711 (peptide sequence: IEPHHTAVLGEGDAVQLENKDPK, peptide start residue: 212)”, the log2 fold change was -0.259.

As to “UniProt Q9D1K7 (peptide sequence: FAAGHDAEGSQSHVHFDEK, peptide start residue: 17)”, the log2 fold change is -0.195. As for “UniProt Q9D945 (peptide sequence: METEIKR, peptide start residue: 79)”, the figure is -0.226.
